Data: patent US20220041559A1, “BENZO-AND PYRIDO-PYRAZOLES AS PROTEIN KINASE INHIBITORS” (ROTTAPHARM BIOTECH S.R.L., priority 2019, published 2022)
For at least one compound, name, drawing or mass did not settle the structure.

Test system: U87MG
Assay: Cell viability, ViaCount assay, U87MG
Format: cell-based, human
Settings: tested cell lines (U87MG, U373)
Description: U87MG: a human glioblastoma astrocytoma from ATCC. Grown in DMEM medium supplemented with 10% FBS at 37° C. with CO2.
Cell viability and total cell count was performed with ViaCount Assay on Guava® Systems, which was able to distinguish viable and non-viable cells based on differential permeabilities of two DNA-binding dyes in the Guava ViaCount® Reagent. 2×10^4 cancer cells were plated in 24 well in DMEM 10%. After 72 h cells were treated with the different compounds for 24, 72 h or 7 days, with a medium change and a second treatment with the product on day 4. At the end of the incubation period the analysis was done following the kit instructions.

SMILES: Cc1ccc(Nc2ccc3c(NC(=O)c4ccc(C5CCN(C)CC5)cc4)n[nH]c3n2)cc1 [Compound 23, 4-(1-methylpiperidin-4-yl)-N-(6-(p-tolyamino)-1H-pyrazolo[3,4-b]pyridin-3-yl)benzamide]
- reduction of cell viability, result in words: active in reducing cell viability
